In publication PMC9723800, “Structural and dynamic basis of DNA capture and translocation by mitochondrial Twinkle helicase” (Nucleic Acids Research, 2022):
Positions count from the first letter of the chain named. Construct, isoform or probe ends are uncertain for at least one entry. At least one verdict rests on a figure or table, not on a statement of the authors. Tags and fusion partners may be left off the protein sequences shown.

How the values were obtained:
[1] = target: T1, LcTwinkle E325Q E452Q (Lates calcarifer) (UniProt A0A4W6C5C5); assay: fluorescence anisotropy; details: 0.5 mM ATP, 1 mM Mg2+, FA: 25 mM Tris-HCl pH 8.0, 150 mM KCl, 1 mM MgCl2, 20 nM Cy5-ssDNA, temperature not stated, recombinant protein, protein details: N-terminal His tag, PreScission-cleaved, label: 5'-Cy5, single-stranded DNA
T1 sequence (looked up, limits assumed): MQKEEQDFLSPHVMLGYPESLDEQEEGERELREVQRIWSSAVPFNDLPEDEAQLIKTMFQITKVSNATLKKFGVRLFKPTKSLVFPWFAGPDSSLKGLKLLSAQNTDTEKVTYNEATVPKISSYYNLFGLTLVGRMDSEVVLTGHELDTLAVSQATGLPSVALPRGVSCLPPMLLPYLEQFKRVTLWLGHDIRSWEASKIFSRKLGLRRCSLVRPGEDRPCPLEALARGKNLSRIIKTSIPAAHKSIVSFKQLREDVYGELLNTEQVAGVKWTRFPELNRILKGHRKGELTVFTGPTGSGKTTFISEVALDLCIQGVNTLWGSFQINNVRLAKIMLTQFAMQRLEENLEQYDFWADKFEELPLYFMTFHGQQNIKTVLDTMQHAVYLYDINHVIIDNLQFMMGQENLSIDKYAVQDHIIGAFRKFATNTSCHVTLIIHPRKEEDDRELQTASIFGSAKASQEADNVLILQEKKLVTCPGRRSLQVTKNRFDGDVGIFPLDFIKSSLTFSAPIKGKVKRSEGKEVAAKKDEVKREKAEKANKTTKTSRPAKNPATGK

[2] = target: T2, LcTwinkle WT (Lates calcarifer) (UniProt A0A4W6C5C5); assay: fluorescence anisotropy; details: 0.5 mM ATP, FA: 25 mM Tris-HCl pH 8.0, 150 mM KCl, 1 mM MgCl2, 20 nM Cy5-ssDNA, temperature not stated, recombinant protein, protein details: N-terminal His tag, PreScission-cleaved
T2 sequence (looked up, limits assumed): T1 sequence (looked up, limits assumed) with Q325E

Measured: binding result

GGATTATTTACATTGGCAGATTCACC [Cy5-ssDNA]
binds: [1] | [2]; 1 mM Mg2+, label: 5'-Cy5, single-stranded DNA | [2]; non-hydrolyzable ATP analogs, label: 5'-Cy5, single-stranded DNA
